# Source: PubChem BioAssay AID540256 (National Center for Advancing Translational Sciences (NCATS), 2011)
# Among all 300,000 compounds or so, about 3,700 (1.2%) were called active. The inconclusive results got no clear call from the source; some entries with a clear call stand among them for comparison. The call rests on the fitted dose curve; tested in HEK293 cells. Potencies of inconclusive entries are doubtful fits and often do not repeat.
# Experiment: qHTS for Inhibitors of binding or entry into cells for Lassa Virus; further: nearly all actives have a fitted effect of over 50% in size
# Details: Lassa virus pseudotype entry inhibition, cell reporter; series mostly up to 37.9 µM
# Potency means the concentration at half of the fitted maximal effect.
row,Compound,Potency
1,COc1cc2c(cc1NC(=O)COC(=O)[C@@H](NS(=O)(=O)c1ccccc1)C(C)C)oc1ccccc12,inactive
2,CC1(c2ccc(OC(F)F)cc2)NC(=O)N(CC(=O)Nc2cccnc2Cl)C1=O (centres undefined),inactive
3,COc1ccc(CCNc2nc(-c3ccc(NC(C)=O)cc3)cs2)cc1OC,"inconclusive: 11.2 µM [inhibitor, partial curve, poor fit]"
4,Nc1nc(CSc2ncccn2)nc(Nc2ccccc2)n1,inactive
5,C=CCOc1c(Cl)cc(CNc2ccc3[nH]c(=O)[nH]c3c2)cc1OC,"inconclusive: 14.6 µM [inhibitor, partial curve, poor fit]"
6,CC(CCN1CCCc2nc(C)c(C)cc21)=NO[C@H](C)c1cn([C@@H]2COC[C@@H]2O)nn1,"inconclusive: 0.75 µM [inhibitor, partial curve]"
7,Cc1ccc2nc(SCC(=O)c3ccc4c(c3)OCO4)[nH]c2c1,inactive
8,CCC(Sc1nc2ncccc2[nH]1)C(=O)Nc1ccccc1F (centres undefined),inactive
9,COc1ccccc1NC(=O)N1CCCC1,"inconclusive: 3.16 µM [inhibitor, partial curve, poor fit]"
10,CCCCc1ccc(NC(=O)C2CCCO2)cc1 (centres undefined),inactive
11,Cc1ccc(NC(=O)Cc2n[nH]c(=O)c3ccccc23)cc1S(=O)(=O)N1CCCCCC1,"inconclusive: 7.08 µM [inhibitor, partial curve, poor fit]"
12,Cc1ccc(S(=O)(=O)N(CC(O)Cn2c3ccccc3c3ccccc32)c2cccc(C(=O)NCCO)c2)cc1 (centres undefined),"inconclusive: 22.4 µM [inhibitor, single point]"
13,CCC(=Nc1ccc2c(c1)CCC2)c1c(O)n(C2CCCCC2)c(=O)[nH]c1=O,"inconclusive: 1.83 µM [inhibitor, full curve, poor fit]"
14,Cn1c(-c2ccc(C(C)(C)C)cc2)n[nH]c1=S,"inconclusive: 35.5 µM [inhibitor, single point]"
15,CCCC(c1nnnn1C1CCCC1)N1CCN(c2ccccc2F)CC1 (centres undefined),"inconclusive: 35.5 µM [inhibitor, single point]"
16,CCOc1ccc(C2NC(=O)CCC2[N+](=O)[O-])cc1 (centres undefined),"inconclusive: 25.1 µM [inhibitor, single point]"
17,Cc1cc(C)c(C(=O)c2ccc(C(=O)N3CCCCC3)cc2)c(C)c1,"inconclusive: 8.91 µM [inhibitor, single point]"
18,O=C(c1ccc([N+](=O)[O-])cc1)N1CCc2ccccc21,inactive
19,Cc1cc(-c2nnc(CCC(=O)N(C)Cc3cccc4ccccc34)o2)no1,inactive
20,Cc1ccc(CSCc2ccc(C(=O)NCCC(C)C)o2)cc1,"inconclusive: 1.41 µM [inhibitor, full curve, poor fit]"
21,COc1cc(NCCCCCCN)c2ncccc2c1OC,"inconclusive: 12.6 µM [inhibitor, single point]"
22,CS(=O)(=O)Nc1cccc(C2=NN(S(C)(=O)=O)C(c3ccc4c(c3)OCO4)C2)c1 (centres undefined),"inconclusive: 4.61 µM [inhibitor, single point]"
23,CN(CC(=O)Nc1ccc(F)cc1)C(=O)COC(=O)CSc1ccc(F)cc1,inactive

row,Compound,Potency
1,Cn1nc(-c2ccccc2F)c2cc(C(=O)N3CCN(c4ccccc4F)CC3)sc21,"inconclusive: 11.2 µM [inhibitor, single point]"
2,Cc1nn(-c2nnc(NC3CCCCC3)nn2)c(C)c1Br,"inconclusive: 1.26 µM [activator, partial curve, poor fit]"
3,Cc1cc(C)nc(NC(=O)c2c(-c3ccccc3Cl)noc2C)c1,inactive
4,COc1ccccc1CC(=O)Nc1cc2oc3ccccc3c2cc1OC,inactive
5,Cc1ccccc1OC1CCN(C(=O)c2cc(COc3ccccc3)on2)CC1,"inconclusive: 5.62 µM [activator, single point]"
6,CCOc1cc(CNc2ccc(O)cc2)cc(Cl)c1OCc1ccccc1,"inconclusive: 35.5 µM [inhibitor, single point]"
7,Cc1cc(NC(=O)COC(=O)C2CCN(S(=O)(=O)c3ccccc3)CC2)c([N+](=O)[O-])cc1C,inactive
8,COc1ccc(NC(=O)c2ccc3c(c2)C(=O)N(Cc2ccncc2)C3=O)cc1S(N)(=O)=O,inactive
9,COC(=O)c1c(NC(=O)c2ccccc2)sc(C(N)=O)c1C,"inconclusive: 6.31 µM [inhibitor, partial curve, poor fit]"
10,Cn1cccc1-c1cc2n(n1)CCC(=O)N2CC(=O)Nc1ccc(F)cc1Cl,inactive
11,CCCCOc1ccc(C(=O)Nc2ccc3c(c2)N(C(C)=O)CCC3)cc1,inactive
12,Cc1nc(NC(=O)CSc2cc(C)c3ccccc3n2)c(Cl)cc1Cl,"inconclusive: 12.6 µM [inhibitor, partial curve, poor fit]"
13,CCc1ccccc1NC(=O)c1ccc(F)c(S(=O)(=O)N2CCN(c3ccccc3OC)CC2)c1,"inconclusive: 0.562 µM [inhibitor, full curve, poor fit]"
14,COc1ccc(/C=C/c2onc(C)c2S(=O)(=O)N2CCC(C(=O)N3CCCCCC3)CC2)cc1,"inconclusive: 2.82 µM [inhibitor, full curve, poor fit]"
15,O=C(Nc1ccc(C(=O)N2CCCC2)cc1)c1ccccc1F,"inconclusive: 16.4 µM [inhibitor, single point]"
16,COc1ccc(-c2csc(NC(=S)NC(=O)/C=C/c3ccco3)n2)cc1Br,"inconclusive: 20 µM [inhibitor, partial curve, poor fit]"
17,O=C(O)c1cccc(NC(=S)N/N=C/c2ccccc2OCc2ccc(Br)cc2)c1,inactive
18,Cc1nc2nc(NCc3cccs3)nn2c(C)c1Cl,"inconclusive: 29.1 µM [activator, single point]"
19,COc1cc([C@@H]2Nc3c(F)cccc3[C@@H]3C=CC[C@@H]32)cc(Br)c1OC,"inconclusive: 5.62 µM [activator, full curve, poor fit]"
20,CCCc1cc(C(=O)N2CCCC(CO)(CCCc3ccccc3)C2)n(C)n1 (centres undefined),"inconclusive: 7.08 µM [inhibitor, full curve, poor fit]"
21,CC(C)c1ccc(OCC(=O)NC(C)c2ccccc2)cc1 (centres undefined),"inconclusive: 20 µM [inhibitor, single point]"
22,COc1cccc(C(=O)Nc2ccc3c(c2)OCO3)c1OC,"inconclusive: 14.1 µM [inhibitor, single point]"
23,Fc1ccc(-c2ncn(C3CCNCC3)c2-c2ccnc(Oc3ccccc3)n2)cc1,active: 6.28 µM

# Single entries from above.
# Under Potency, CC(C)c1ccc(OCC(=O)NC(C)c2ccccc2)cc1 (centres undefined) has the entry inconclusive: 20 µM [inhibitor, single point]
# Under Potency, Cn1nc(-c2ccccc2F)c2cc(C(=O)N3CCN(c4ccccc4F)CC3)sc21 has the entry inconclusive: 11.2 µM [inhibitor, single point]
# Under Potency, COc1ccc(-c2csc(NC(=S)NC(=O)/C=C/c3ccco3)n2)cc1Br has the entry inconclusive: 20 µM [inhibitor, partial curve, poor fit]

# (continued)

row,Compound,Potency
1,COc1ccc(NC(C)C(=O)N/N=C/c2cc(Br)ccc2OC)cc1 (centres undefined),"inconclusive: 35.5 µM [inhibitor, single point]"
2,CN1C(=O)/C(=C/c2ccc(Cl)s2)C(=O)NC1=S,"inconclusive: 3.55 µM [activator, single point]"
3,CCn1c(=O)c2cc(C(=O)NCCN(C)C)sc2c2ccccc21,"inconclusive: 35.5 µM [inhibitor, single point]"
4,CCc1cc(SC#N)cc(C)c1NC(=O)CCl,"inconclusive: 0.291 µM [inhibitor, partial curve]"
5,CCN(CC)C(=O)c1sc(N)c(C#N)c1C,"inconclusive: 0.891 µM [activator, full curve, poor fit]"
6,Cc1ccc(NC(=O)CC(c2ccc(F)cc2)N2Cc3ccccc3C2=O)cc1C (centres undefined),inactive
7,Cc1c(C(=O)NCc2ccc(Cl)cc2)sc2nc3n(c(=O)c12)CCC3,inactive
8,Nc1c(-c2ccc(Cl)cc2)cnc2c(-c3ccccc3)cnn12,"inconclusive: 0.316 µM [activator, partial curve, poor fit]"
9,CCOC(=O)N1CCN(CCC(=O)Nc2cccc(F)c2)CC1,inactive
10,COCCNC(=O)CN1C(=O)CCn2nc(-c3cn(C)c4ccccc34)cc21,inactive
11,COc1cc(CN(C2CCCCC2C)S(=O)(=O)c2ccc(S(=O)(=O)NC3CC3)cc2)cc(OC)c1OC (centres undefined),"inconclusive: 18.4 µM [inhibitor, single point]"
12,O=C1NCCN/C1=C\C(=O)c1ccc(Cl)cc1,"inconclusive: 6.31 µM [activator, single point]"
13,O=C(CN1CCCC1)Nc1c(C(=O)C2CC2)oc2ccccc12,"inconclusive: 35.5 µM [inhibitor, single point]"
14,CN1CCN(S(=O)(=O)c2ccc(=O)[nH]c2)CC1,"inconclusive: 3.66 µM [activator, partial curve, poor fit]"
15,COc1ccc(NC(=O)C2=CC(c3ccc4c(c3)OCO4)=NS(=O)(=O)N2C)cc1OC,inactive
16,O=S(=O)(c1ccc(Cl)cc1)c1nc(-c2ccccc2F)oc1NCc1ccccc1,"inconclusive: 10 µM [inhibitor, partial curve, poor fit]"
17,Cc1ccc(NS(=O)(=O)c2ccc(OCC(=O)NCc3cccnc3)cc2)cc1,"inconclusive: 11.2 µM [inhibitor, partial curve, poor fit]"
18,CCOc1ccc(NC(=O)CCn2c(=O)[nH]c3ccsc3c2=O)cc1,inactive
19,COc1ccccc1OCCNC(=O)Cc1ccc(Cl)c(Cl)c1,inactive
20,O=C(NCCc1c[nH]c2ccccc12)C(=O)NCC(c1ccco1)N1CCN(c2ccccc2F)CC1 (centres undefined),"inconclusive: 25.1 µM [inhibitor, single point]"
21,CC(=O)OCC(=O)Nc1ccc(Br)c(C)c1,"inconclusive: 1.26 µM [activator, single point]"
22,O=C(NNS(=O)(=O)c1ccc2ccccc2c1)c1cccnc1,"inconclusive: 11.2 µM [inhibitor, partial curve, poor fit]"
23,CCc1cc[n+](-c2nc3ccccc3nc2[N-]S(=O)(=O)c2ccc(Br)s2)cc1,inactive
